Data taken from US20060216292A1.
Results are given in words; binding and its absence hold for the method and conditions named. In cells and extracts the contact can be indirect. A result given as binding can be weak or reduced; the word gives no strength. Where a sequence is shown, tags or fusion partners need not be part of it.

Target: T1, TAP-tagged PTK7 (Homo sapiens (Human)) (UniProt Q13308)
T1 sequence: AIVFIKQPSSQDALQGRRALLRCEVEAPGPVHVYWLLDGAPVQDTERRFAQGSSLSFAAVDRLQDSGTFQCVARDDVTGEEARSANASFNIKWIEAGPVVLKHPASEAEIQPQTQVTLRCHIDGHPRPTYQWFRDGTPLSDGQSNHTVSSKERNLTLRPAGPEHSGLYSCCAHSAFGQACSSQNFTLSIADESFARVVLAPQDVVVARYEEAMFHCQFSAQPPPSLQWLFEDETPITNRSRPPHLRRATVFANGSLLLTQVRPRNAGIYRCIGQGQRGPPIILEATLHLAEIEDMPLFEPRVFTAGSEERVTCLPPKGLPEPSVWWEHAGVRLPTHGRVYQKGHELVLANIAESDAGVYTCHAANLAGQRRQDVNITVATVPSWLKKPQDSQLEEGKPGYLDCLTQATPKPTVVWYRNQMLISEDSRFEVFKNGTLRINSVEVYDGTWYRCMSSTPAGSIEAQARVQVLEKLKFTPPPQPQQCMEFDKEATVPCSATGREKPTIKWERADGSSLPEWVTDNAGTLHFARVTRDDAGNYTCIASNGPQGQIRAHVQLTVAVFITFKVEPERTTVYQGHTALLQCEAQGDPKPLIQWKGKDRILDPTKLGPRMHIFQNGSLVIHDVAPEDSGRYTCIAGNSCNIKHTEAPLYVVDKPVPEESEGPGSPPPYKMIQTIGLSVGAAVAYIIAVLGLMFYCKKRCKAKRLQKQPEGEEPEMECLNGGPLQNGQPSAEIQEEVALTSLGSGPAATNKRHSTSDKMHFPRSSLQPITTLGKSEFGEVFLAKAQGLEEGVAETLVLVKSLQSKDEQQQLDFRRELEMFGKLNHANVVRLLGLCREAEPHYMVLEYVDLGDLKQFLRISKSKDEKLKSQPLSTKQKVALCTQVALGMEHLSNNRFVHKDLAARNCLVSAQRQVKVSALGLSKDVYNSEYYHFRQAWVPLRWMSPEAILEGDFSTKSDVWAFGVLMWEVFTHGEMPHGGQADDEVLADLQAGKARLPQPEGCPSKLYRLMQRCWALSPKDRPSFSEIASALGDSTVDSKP
Assay: TAP purification of tagged bait, LC-MS/MS; novel interactor

HIFPH3/EGLN3 (enzyme)
binding: binds
